The full ranking holds about 33,000 sequences; the median of “E-score (-0.5 to 0.5)” is about -0.0059, and the highest 2% start at about 0.26. Some of the results follow.
Each sequence was assayed against T1, Cin5 (UniProt P40917) (assay: PBM E-score (8-mer binding enrichment) (E-score (-0.5 to 0.5)); higher = stronger / more preferred TF binding). Conditions: protein concentration: 100 nM; construct: GST-full length.
T1 sequence: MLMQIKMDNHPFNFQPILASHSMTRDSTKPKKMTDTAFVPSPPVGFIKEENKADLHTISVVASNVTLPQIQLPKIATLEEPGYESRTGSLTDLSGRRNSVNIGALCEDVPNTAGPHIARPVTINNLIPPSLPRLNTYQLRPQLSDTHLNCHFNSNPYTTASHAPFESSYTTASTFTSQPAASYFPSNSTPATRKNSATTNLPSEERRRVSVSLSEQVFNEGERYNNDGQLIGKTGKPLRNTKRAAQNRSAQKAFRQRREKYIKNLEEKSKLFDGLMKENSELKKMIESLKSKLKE
Procedure, shortened: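 E-scores (a modified Wilcoxon-Mann-Whitney statistic) were assigned by the Universal PBM Analysis Suite to every ungapped eight-base word pooled with its reverse complement. The input came from universal all-10-mer Agilent arrays made double-stranded by primer extension and probed with GST-tagged yeast transcription factors at about 100-200 nM. Fluorescent anti-GST detected bound protein, and masliner normalised the scans.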

Sequence	PBM E-score
ATGGCCCC	-0.221
GCGATACA	-0.00898
ATATCAAT	0.205
ACATCTGA	-0.25
CCGCGCTA	0.0777
AATTGCAT	0.157
ATCCTCTG	0.0169
CTAGATAA	0.0277
ACGTGTAT	0.179
AACACTAG	0.172
ATACGGCA	0.151
ACTGTGCC	-0.154
AAGATCCG	-0.113
GGTTTAGA	-0.0277
CTAACGAC	-0.103
CGAGGCCC	-0.167
GGACAACC	-0.17
ATCCATGC	-0.0259
CCAACGTA	0.00541
CCCTGAGA	-0.132
TACGCAGA	0.0978
TGAAACAA	0.0672
AACCTCCG	-0.183
CGTAAGAC	0.0208
GCGTCCCA	-0.176

Sequence	PBM E-score
AAAGCCCT	-0.168
TAGTATAA	0.101
ATCTGGGG	-0.123
GATGTGGC	-0.102
CTCGCGTA	-0.0518
CCAGGACC	-0.188
GTGTACCA	-0.0106
ATTCACTA	0.206
TATATCGA	0.203
GAGCGGAC	-0.251
ACCATTAC	0.0454
CCAACCCC	-0.0486
CAACGTGG	-0.0906
TGCACCCA	0.0314
CGAAAGCA	0.104
CATTGTCA	0.0649
GACTTCTC	-0.0136
ATAGGGTC	-0.0726
AGGTAGAC	-0.0252
AGGACAAT	0.115
ATGCATTA	0.341
GATAGCAA	0.279
ACTGAGCC	-0.101
CCGTTATA	0.0331
ACACAGAG	0.0184

For convenience, some entries already given.
Sequence	PBM E-score
ATGCATTA	0.341
GATAGCAA	0.279

(listing goes on)

Sequence	PBM E-score
GAGTCAGA	-0.0391
AACTCCGA	-0.135
ACTAACAG	0.198
AGTGTTAA	0.202
CCAATTAA	0.154
AAAAACGG	0.0031
AGAGGAAA	0.0227
CTGTAGAA	-0.0177
CAATAAAA	0.141
CCGGCTGC	-0.134
AATCTCTG	-0.129
CTGATGGA	0.0384
AGAGAGAA	-0.12
AAAAGGCC	-0.183
AGTCTGAA	-0.00268
ACGCCTTG	-0.0542
AAAGCTTT	-0.056
ATAGTCTC	0.041
AAAACAGT	0.226
ACAGCCCG	-0.18
AGTACGGA	0.224
ACTCAGAC	-0.0116
CAGTGCCG	-0.0996
GCAGATTA	0.129
AATTATTC	0.19

Three entries from above, as a markdown table.

| Sequence | PBM E-score |
| --- | --- |
| ACTAACAG | 0.198 |
| CCGGCTGC | -0.134 |
| AAAGCTTT | -0.056 |

(next part)

Sequence	PBM E-score
CGGGGTAG	-0.0489
AGCTAAGG	-0.264
ACCACCAC	0.0127
AGAAATTC	-0.0475
AAATCGCA	0.0889
CCTTGTGA	-0.0498
CGCTGCCC	-0.265
CGGTTTCA	0.00702
CAAGGTGG	-0.0819
CACAACGA	-0.00952
AGGGCGCA	-0.137
CTGAGCGA	-0.021
GAGGCCTA	-0.142
ATGGAGGA	-0.0744
CAGGGTCA	-0.197
CACGTATC	0.0779
ACAATCCG	0.106
GGTAAAAC	-0.00986
CAAACCTG	-0.00972
GGAGAACA	-0.033
CTAGCAAG	-0.0636
CAGAGAGA	-0.0433
GAAGGAGA	0.0841
ATAACTGG	0.00864
AAATCCAA	0.117

Sequence	PBM E-score
GTAGCTCA	-0.046
TAACGACA	0.145
GATTCGGC	0.0202
ATCAAAGA	-0.107
CCCTAGAG	-0.0969
GCCTATCC	-0.122
ACGTTCAA	-0.133
GGATAACA	0.0726
AGCATGTC	0.00532
ATATTAGG	0.192
AGGATGGA	-0.0937
AGTACCCC	-0.188
ATCGACAA	0.0851
ATTGCAAT	0.164
TATAGGAA	0.124
GACTCACC	-0.14
GCCACTCA	-0.0426
CTTCGAAC	-0.0704
GTATCAGA	-0.0398
GGACTGCA	-0.157
CAGTTGTC	0.0812
ATCGGCGG	0.0315
CTTGGGTA	0.0866
GACTAGAA	0.0407
CGGACCCC	-0.295

Sequence	PBM E-score
ACATCAGC	0.0733
ATTTGGGA	0.0403
ACGTGCCT	-0.155
GTTACAAC	0.118
ATCTTCGG	0.128
AAACTAAT	0.312
ATCCCATC	0.0574
AGCCTGCG	-0.306
GTCCCCAC	-0.284
GAGTGGTA	-0.0138
ATGTCAAT	0.156
AATCGAAC	0.0419
ATGGAAAA	0.141
ACCTCCAA	-0.135
ACGGGTCA	-0.279
CCTGATCG	-0.0727
GAGCTAAA	-0.173
TCCTGCCA	-0.118
AAATTGAT	0.158
ATTTGTGA	0.0702
GGACAAAC	-0.0821
ATCAATGC	0.123
AACATCCA	0.138
ATAGCCAG	-0.0709
GAAAAGGA	0.0226

Sequence	PBM E-score
AATAACAC	0.247
GACCAAGC	-0.169
CCACCAAG	-0.106
AAACCCAG	0.0437
ACATCAAC	0.208
CCAAAGTA	0.0124
AGGCTGAG	-0.0489
ACATCAAT	0.172
CAAACCAC	0.00432
GAAGTTAA	-0.0529
CGACAAGC	-0.12
CAACATCC	0.0233
CGCTGTGC	-0.0792
CCGGGAGC	-0.336
AGGGACCT	-0.191
ATGATCTG	0.115
AAATACAT	0.138
ACAACTGC	-0.0262
CCCACTTC	0.0299
ATATCCAG	-0.0155
ATCTACAT	0.255
GGGTACGA	-0.0524
ATAATCCA	0.225
ATAGGGAG	-0.23
AAACATAA	0.199

Given in CSV form: entries from further up
Sequence,PBM E-score
ATACGGCA,0.151
CCAGGACC,-0.188
AAAGCTTT,-0.056
CAACATCC,0.0233

Continued.

Sequence	PBM E-score
CCGGTCGA	-0.239
TAAACATA	0.162
GCACCGGC	-0.178
TACAAGTA	0.129
CGTGCCGA	-0.115
ATCCTACG	-0.0513
AGGGCGTA	-0.0973
CGGTAGGA	-0.0917
GACCCTGC	-0.212
AGGGATAA	-0.0332
GCCGCCGA	0.0845
ATTCACGA	0.0917
ATTTGTTG	0.154
ACTAGTCT	-0.0739
AATGGAGA	-0.0939
AGGCAAAG	0.0351
ATTGCAAA	0.161
ACCATTCG	-0.17
CGTAAGTC	0.0859
GGGACAAC	-0.0514
CGTTAATA	0.191
ATTAAGTA	0.254
CGGTTAGC	-0.214
CAATCAGG	-0.0583
TATGACAA	0.0745

Sequence	PBM E-score
CAAGCTTA	0.184
GACTGTCC	-0.175
GCCGGCCC	-0.133
GGGAAAAC	0.0147
GCCTTGCC	-0.204
CAGCTACA	0.0445
GACTAAGC	0.192
AATCTGAG	-0.076
CTTTAAAA	-0.00746
GAGTATAC	0.148
GTGCCCAA	-0.0898
ACGGTCTG	-0.176
CAATACGA	-0.00571
GGTAAGCA	0.318
ACGGGTTG	-0.167
ATGGGCGC	-0.0843
TCTGTTAA	0.0592
ATTAGAAC	0.256
ACATGAGA	0.0909
